B1: GTPBP6 (protein, UniProt O43824 1-516, looked up)
Putative GTP-binding protein 6: MWALRAAVRPGLRLSRVGRGRSAPRAAAPSCPARALAAVGRRSPGNLEGPWGGGRGLRADGGRSRTGDDEEEPEDADENAEEELLRGEPLLPAGTQRVCLVHPDVKWGPGKSQMTRAEWQVAEATALVHTLDGWSVVQTMVVSTKTPDRKLIFGKGNFEHLTEKIRGSPDITCVFLNVERMAAPTKKELEAAWGVEVFDRFTVVLHIFRCNARTKEARLQVALAEMPLHRSNLKRDVAHLYRGVGSRYIMGSGESFMQLQQRLLREKEAKIRKALDRLRKKRHLLRRQRTRREFPVISVVGYTNCGKTTLIKALTGDAAIQPRDQLFATLDVTAHAGTLPSRMTVLYVDTIGFLSQLPHGLIESFSATLEDVAHSDLILHVRDVSHPEAELQKCSVLSTLRGLQLPAPLLDSMVEVHNKVDLVPGYSPTEPNVVPVSALRGHGLQELKAELDAAVLKATGRQILTLRVRLAGAQLSWLYKEATVQEVDVIPEDGAADVRVIISNSAYGKFRKLFPG
B2: MAGT1 (protein, UniProt Q9H0U3 30-335, looked up)
Dolichyl-diphosphooligosacchar …: QRKKEMVLSEKVSQLMEWTNKRPVIRMNGDKFRRLVKAPPRNYSVIVMFTALQLHRQCVVCKQADEEFQILANSWRYSSAFTNRIFFAMVDFDEGSDVFQMLNMNSAPTFINFPAKGKPKRGDTYELQVRGFSAEQIARWIADRTDVNIRVIRPPNYAGPLMLGLLLAVIGGLVYLRRSNMEFLFNKTGWAFAALCFVLAMTSGQMWNHIRGPPYAHKNPHTGHVNYIHGSSQAQFVAETHIVLLFNGGVTLGMVLLCEAATSDMDIGKRKIMCVAGIGLVVLFFSWMLSIFRSKYHGYPYSFLMS
B3: DNAJC10 (protein, UniProt Q8IXB1 33-793, looked up)
DnaJ homolog subfamily C …: DQDFYSLLGVSKTASSREIRQAFKKLALKLHPDKNPNNPNAHGDFLKINRAYEVLKDEDLRKKYDKYGEKGLEDNQGGQYESWNYYRYDFGIYDDDPEIITLERREFDAAVNSGELWFVNFYSPGCSHCHDLAPTWRDFAKEVDGLLRIGAVNCGDDRMLCRMKGVNSYPSLFIFRSGMAPVKYHGDRSKESLVSFAMQHVRSTVTELWTGNFVNSIQTAFAAGIGWLITFCSKGGDCLTSQTRLRLSGMLDGLVNVGWMDCATQDNLCKSLDITTSTTAYFPPGATLNNKEKNSILFLNSLDAKEIYLEVIHNLPDFELLSANTLEDRLAHHRWLLFFHFGKNENSNDPELKKLKTLLKNDHIQVGRFDCSSAPDICSNLYVFQPSLAVFKGQGTKEYEIHHGKKILYDILAFAKESVNSHVTTLGPQNFPANDKEPWLVDFFAPWCPPCRALLPELRRASNLLYGQLKFGTLDCTVHEGLCNMYNIQAYPTTVVFNQSNIHEYEGHHSAEQILEFIEDLMNPSVVSLTPTTFNELVTQRKHNEVWMVDFYSPWCHPCQVLMPEWKRMARTLTGLINVGSIDCQQYHSFCAQENVQRYPEIRFFPPKSNKAYHYHSYNGWNRDAYSLRIWGLGFLPQVSTDLTPQTFSEKVLQGKNHWVIDFYAPWCGPCQNFAPEFELLARMIKGKVKAGKVDCQAYAQTCQKAGIRAYPTVKFYFYERAKRNFQEEQINTRDAKAIAALISEKLETLRNQGKRNKDEL
B4: TMEM33 (protein, UniProt P57088 2-247, looked up)
Transmembrane protein 33: ADTTPNGPQGAGAVQFMMTNKLDTAMWLSRLFTVYCSALFVLPLLGLHEAASFYQRALLANALTSALRLHQRLPHFQLSRAFLAQALLEDSCHYLLYSLIFVNSYPVTMSIFPVLLFSLLHAATYTKKVLDARGSNSLPLLRSVLDKLSANQQNILKFIACNEIFLMPATVFMLFSGQGSLLQPFIYYRFLTLRYSSRRNPYCRTLFNELRIVVEHIIMKPACPLFVRRLCLQSIAFISRLAPTVP
B5: ATP2B1 (protein, UniProt P20020 2-1220, looked up)
Plasma membrane …: GDMANNSVAYSGVKNSLKEANHDGDFGITLAELRALMELRSTDALRKIQESYGDVYGICTKLKTSPNEGLSGNPADLERREAVFGKNFIPPKKPKTFLQLVWEALQDVTLIILEIAAIVSLGLSFYQPPEGDNALCGEVSVGEEEGEGETGWIEGAAILLSVVCVVLVTAFNDWSKEKQFRGLQSRIEQEQKFTVIRGGQVIQIPVADITVGDIAQVKYGDLLPADGILIQGNDLKIDESSLTGESDHVKKSLDKDPLLLSGTHVMEGSGRMVVTAVGVNSQTGIIFTLLGAGGEEEEKKDEKKKEKKNKKQDGAIENRNKAKAQDGAAMEMQPLKSEEGGDGDEKDKKKANLPKKEKSVLQGKLTKLAVQIGKAGLLMSAITVIILVLYFVIDTFWVQKRPWLAECTPIYIQYFVKFFIIGVTVLVVAVPEGLPLAVTISLAYSVKKMMKDNNLVRHLDACETMGNATAICSDKTGTLTMNRMTVVQAYINEKHYKKVPEPEAIPPNILSYLVTGISVNCAYTSKILPPEKEGGLPRHVGNKTECALLGLLLDLKRDYQDVRNEIPEEALYKVYTFNSVRKSMSTVLKNSDGSYRIFSKGASEIILKKCFKILSANGEAKVFRPRDRDDIVKTVIEPMASEGLRTICLAFRDFPAGEPEPEWDNENDIVTGLTCIAVVGIEDPVRPEVPDAIKKCQRAGITVRMVTGDNINTARAIATKCGILHPGEDFLCLEGKDFNRRIRNEKGEIEQERIDKIWPKLRVLARSSPTDKHTLVKGIIDSTVSDQRQVVAVTGDGTNDGPALKKADVGFAMGIAGTDVAKEASDIILTDDNFTSIVKAVMWGRNVYDSISKFLQFQLTVNVVAVIVAFTGACITQDSPLKAVQMLWVNLIMDTLASLALATEPPTESLLLRKPYGRNKPLISRTMMKNILGHAFYQLVVVFTLLFAGEKFFDIDSGRNAPLHAPPSEHYTIVFNTFVLMQLFNEINARKIHGERNVFEGIFNNAIFCTIVLGTFVVQIIIVQFGGKPFSCSELSIEQWLWSIFLGMGTLLWGQLISTIPTSRLKFLKEAGHGTQKEEIPEEELAEDVEEIDHAERELRRGQILWFRGLNRIQTQIRVVNAFRSSLYEGLEKPESRSSIHNFMTHPEFRIEDSEPHIPLIDDTDAEDDAPTKRNSSPPPSPNKNNNAVDSGIHLTIEMNKSATSSSPGSPLHSLETSL
B6: NT5DC2 (protein, UniProt Q9H857 1-520, looked up)
5'-nucleotidase …: MRVESGSAQERGILLESLSTLLEKTTASHEGRAPGNRELTDLLPPEVCSLLNPAAIYANNEISLRDVEVYGFDYDYTLAQYADALHPEIFSTARDILIEHYKYPEGIRKYDYNPSFAIRGLHYDIQKSLLMKIDAFHYVQLGTAYRGLQPVPDEEVIELYGGTQHIPLYQMSGFYGKGPSIKQFMDIFSLPEMALLSCVVDYFLGHSLEFDQAHLYKDVTDAIRDVHVKGLMYQWIEQDMEKYILRGDETFAVLSRLVAHGKQLFLITNSPFSFVDKGMRHMVGPDWRQLFDVVIVQADKPSFFTDRRKPFRKLDEKGSLQWDRITRLEKGKIYRQGNLFDFLRLTEWRGPRVLYFGDHLYSDLADLMLRHGWRTGAIIPELEREIRIINTEQYMHSLTWQQALTGLLERMQTYQDAESRQVLAAWMKERQELRCITKALFNAQFGSIFRTFHNPTYFSRRLVRFSDLYMASLSCLLNYRVDFTFYPRRTPLQHEAPLWMDQLCTGCMKTPFLGDMAHIR
B7: NDC1 (protein, UniProt Q9BTX1 1-674, looked up)
Nucleoporin NDC1: MATAVSRPCAGRSRDILWRVLGWRIVASIVWSVLFLPICTTVFIIFSRIDLFHPIQWLSDSFSDLYSSYVIFYFLLLSVVIIIISIFNVEFYAVVPSIPCSRLALIGKIIHPQQLMHSFIHAAMGMVMAWCAAVITQGQYSFLVVPCTGTNSFGSPAAQTCLNEYHLFFLLTGAFMGYSYSLLYFVNNMNYLPFPIIQQYKFLRFRRSLLLLVKHSCVESLFLVRNFCILYYFLGYIPKAWISTAMNLHIDEQVHRPLDTVSGLLNLSLLYHVWLCGVFLLTTWYVSWILFKIYATEAHVFPVQPPFAEGSDECLPKVLNSNPPPIIKYLALQDLMLLSQYSPSRRQEVFSLSQPGGHPHNWTAISRECLNLLNGMTQKLILYQEAAATNGRVSSSYPVEPKKLNSPEETAFQTPKSSQMPRPSVPPLVKTSLFSSKLSTPDVVSPFGTPFGSSVMNRMAGIFDVNTCYGSPQSPQLIRRGPRLWTSASDQQMTEFSNPSPSTSISAEGKTMRQPSVIYSWIQNKREQIKNFLSKRVLIMYFFSKHPEASIQAVFSDAQMHIWALEGLSHLVAASFTEDRFGVVQTTLPAILNTLLTLQEAVDKYFKLPHASSKPPRISGSLVDTSYKTLRFAFRASLKTAIYRITTTFGEHLNAVQASAEHQKRLQQFLEFKE
B8: RARS2 (protein, UniProt Q5T160 17-578, looked up)
Probable arginine--tRNA …: LNLPPENLITSISAVPISQKEEVADFQLSVDSLLEKDNDHSRPDIQVQAKRLAEKLRCDTVVSEISTGQRTVNFKINRELLTKTVLQQVIEDGSKYGLKSELFSGLPQKKIVVEFSSPNVAKKFHVGHLRSTIIGNFIANLKEALGHQVIRINYLGDWGMQFGLLGTGFQLFGYEEKLQSNPLQHLFEVYVQVNKEAADDKSVAKAAQEFFQRLELGDVQALSLWQKFRDLSIEEYIRVYKRLGVYFDEYSGESFYREKSQEVLKLLESKGLLLKTIKGTAVVDLSGNGDPSSICTVMRSDGTSLYATRDLAAAIDRMDKYNFDTMIYVTDKGQKKHFQQVFQMLKIMGYDWAERCQHVPFGVVQGMKTRRGDVTFLEDVLNEIQLRMLQNMASIKTTKELKNPQETAERVGLAALIIQDFKGLLLSDYKFSWDRVFQSRGDTGVFLQYTHARLHSLEETFGCGYLNDFNTACLQEPQSVSILQHLLRFDEVLYKSSQDFQPRHIVSYLLTLSHLAAVAHKTLQIKDSPPEVAGARLHLFKAVRSVLANGMKLLGITPVCRM
B9: MAIP1 (protein, UniProt Q8WWC4 97-291, looked up)
m-AAA protease-interacting …: STEEKPQQHQKTKMIVLGFSNPINWVRTRIKAFLIWAYFDKEFSITEFSEGAKQAFAHVSKLLSQCKFDLLEELVAKEVLHALKEKVTSLPDNHKNALAANIDEIVFTSTGDISIYYDEKGRKFVNILMCFWYLTSANIPSETLRGASVFQVKLGNQNVETKQLLSASYEFQREFTQGVKPDWTIARIEHSKLLE

Each molecule was assayed on BAF complex subunits and histone proteins (assay: Mass spectrometry proteomics of purified HA-SS18 WT and HA-SS18-SSX1 complexes (Tables 5A-5E)). Settings: HA-SS18SSX1 purification, NE (soluble nuclear extract) fraction, HEK-293T; peptides per identified protein.
Set-up: species or system human
In the case of B1, the “Total (total peptides)” value is reported as 3 and the “Unique (unique peptides)” value is reported as 3.
For B2, the “Total (total peptides)” value was 3 and the “Unique (unique peptides)” value was 3.
For B3, the “Total (total peptides)” value was 3 and the “Unique (unique peptides)” value was 3.
With B4 the “Total (total peptides)” value was 3 and the “Unique (unique peptides)” value was 3.
In the case of B5, the “Total (total peptides)” value is reported as 3 and the “Unique (unique peptides)” value is reported as 3.
In the case of B6, the “Total (total peptides)” value is reported as 3 and the “Unique (unique peptides)” value is reported as 3.
B7 was tested, and the “Total (total peptides)” value was 3 and the “Unique (unique peptides)” value was 3.
B8 was tested, and the “Total (total peptides)” value was 3 and the “Unique (unique peptides)” value was 3.
B9 was tested, and the “Total (total peptides)” value was 3 and the “Unique (unique peptides)” value was 3.

Same assay, conditions: HA-SS18WT_NE_peptides: HA-SS18 WT complexes purified from nuclear extract (NE), HEK-293T; label = protein identified (Gene Symbol)
In the case of B1, the “Total (peptides)” value is reported as 3 and the “Unique (peptides)” value is reported as 3.
For B6, the “Total (peptides)” value was 9 and the “Unique (peptides)” value was 9.
B8 was tested, and the “Total (peptides)” value was 3 and the “Unique (peptides)” value was 3.

Same assay, conditions: HA-SS18WT_NE_peptides: proteins co-purified with HA-SS18 WT from nuclear extract (NE), HEK-293T
In the case of B2, the “Total (peptides)” value is reported as 2 and the “Unique (peptides)” value is reported as 2.
For B3, the “Total (peptides)” value was 1 and the “Unique (peptides)” value was 1.
In the case of B4, the “Total (peptides)” value is reported as 2 and the “Unique (peptides)” value is reported as 2.
B9 was tested, and the “Total (peptides)” value was 1 and the “Unique (peptides)” value was 1.

From US20250283871A1, “COMPOSITIONS AND METHODS FOR MODULATING THE INTERACTION BETWEEN SS18-SSX FUSION ONCOPROTEIN AND NUCLEOSOMES” (Dana-Farber Cancer Institute, Inc., priority 2020, published 2025)
